In PubChem BioAssay AID2551 (National Center for Advancing Translational Sciences (NCATS), 2010):
“And” between values parts separate entries of the source, which are not always exact repeats. Equal values may be shown once. Screen size: about 310,000 compounds; about 17,000 (5.5%) were called active. This list was built around the results that the source calls inconclusive (neither active nor inactive); the mix of calls is not that of the screen. Calls come from the whole dose curve; as a rule, active = well fitted inhibition curve with a large enough effect; inconclusive = small, poorly fitted or top-dose-only effect, or effect the other way; inactive = no such curve, though single readings can be large or run the other way. Potencies of inconclusive entries are doubtful fits and often do not repeat.

The chains behind the UniProt entries cited, without tags or fusion partners. Where a name states a change or a piece, a line headed by the entry shows the natural chain unless it says otherwise.
UniProt P51450: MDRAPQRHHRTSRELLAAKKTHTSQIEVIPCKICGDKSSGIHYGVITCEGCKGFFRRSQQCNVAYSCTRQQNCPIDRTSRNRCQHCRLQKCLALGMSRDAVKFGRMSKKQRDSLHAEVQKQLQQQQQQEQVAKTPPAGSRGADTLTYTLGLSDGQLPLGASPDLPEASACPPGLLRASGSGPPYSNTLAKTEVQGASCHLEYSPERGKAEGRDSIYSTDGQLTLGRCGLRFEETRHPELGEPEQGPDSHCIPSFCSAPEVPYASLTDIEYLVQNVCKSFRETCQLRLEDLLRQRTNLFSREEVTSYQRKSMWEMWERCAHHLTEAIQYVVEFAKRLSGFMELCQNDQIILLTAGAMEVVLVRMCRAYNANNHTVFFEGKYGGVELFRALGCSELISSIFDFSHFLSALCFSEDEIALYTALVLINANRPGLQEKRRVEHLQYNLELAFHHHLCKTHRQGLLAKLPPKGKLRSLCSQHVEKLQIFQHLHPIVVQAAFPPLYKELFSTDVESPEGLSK

target: Nuclear receptor ROR-gamma (Mus musculus) (UniProt P51450); assay: qHTS for inhibitors of ROR gamma transcriptional activity; conditions: Drosophila S2 Gal4-RORgamma UAS-luciferase reporter, 20 h; series mostly up to 53.6 µM; note: nearly all actives have a fitted effect of over 60% in size
How it was run: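 Using a luciferase readout, inhibitors were identified by reduced reporter activity in Drosophila cells coexpressing a copper-inducible Gal4–ROR gamma fusion and UAS-driven Photinus luciferase, incubated 20 hr after 700 uM copper sulfate.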
Potency is the fitted concentration of half-maximal effect.

Structure (SMILES) | Potency
CCOc1ccc(/C=N/NC(=O)Nc2ccccc2)cc1 | inactive
CC(=O)c1ccccc1OCCOCCOc1ccccc1C(C)=O | inconclusive: 22.4 µM [activator, single point]
CCOc1ccc(NC(=O)CC2S/C(=N/N=C3CCCCCC3)NC2=O)cc1 (stereo unspecified) | active: 20 µM
CCOC(=O)COc1c(Cl)cc(C2NC(=S)NC(c3ccccc3)=C2C(C)=O)cc1OCC (stereo unspecified) | active: 3.55 µM
COc1ccc([N+](=O)[O-])cc1/C=N/NC(=O)CNC(=O)c1cccc(F)c1 | active: 10 µM
COc1ccccc1NC1=C(Cl)C(=O)OC1OC(=O)c1ccco1 (stereo unspecified) | inconclusive: 11.2 µM [inhibitor, single point]
CCOC(=O)c1c(C)n(-c2ccc(C)cc2)c2c(CC(C)=O)c(Br)c(OC)c(O)c12 | inactive
CCOC(=O)N1CCC(NS(=O)(=O)c2ccc(NC(C)=O)c(Cl)c2)CC1 | inconclusive: 4.47 µM [activator, partial curve]
O=C(Nc1ccc(Cl)cc1)Nc1ccc2c(c1)OCO2 | inactive
CC(=O)N1CCN(c2ccccc2NC(=O)COc2cc(C)cc(C)c2)CC1 | inconclusive: 1.41 µM [activator, full curve, poor fit]
Cc1ccc(C)c(S(=O)(=O)N2CCN(C(=O)c3cc(S(=O)(=O)NCc4ccccc4)ccc3C)CC2)c1 | inconclusive: 10 µM [activator, partial curve]
C=CCn1c(=O)c(C(=O)NCc2ccc(Cl)cc2)c(O)c2ccccc21 | inconclusive: 17.8 µM [inhibitor, single point]
N#CC(c1ccccc1O)N1N=C(c2ccccc2)CC1c1ccccc1 (stereo unspecified) | inconclusive: 35.5 µM [inhibitor, single point]
CCC(C)NC(=O)C1=C(C)C(=O)OC12CCC(C)CC2 (stereo unspecified) | inactive
O=C(Nc1cccc(NC(=O)c2ccccc2[N+](=O)[O-])n1)c1ccccc1[N+](=O)[O-] | inactive
O=C(c1cccs1)c1coc2ccc(O)c(CN3CCOCC3)c12 | inconclusive: 0.631 µM [inhibitor, single point]
Cc1cc(NC(=S)Nc2ccccc2)ccc1Br | active: 10 µM
COc1ccccc1/C=C/C=N/n1c(-c2ccccc2)n[nH]c1=S | active: 0.398 µM
CC(C)Cc1nccs1 | inactive
N#CCCn1cc(CNCc2ccccc2)c(-c2cccc([N+](=O)[O-])c2)n1 | inactive
Cc1cccc(C(=O)NC(=S)Nc2ccc(N3CCOCC3)cc2)c1 | active: 3.98 µM
CCOC(=O)N=Nc1c(O)n(Cc2ccccc2)c2ccccc12 | inconclusive: 14.1 µM [activator, single point]
CC(OC(=O)c1cccnc1)C(=O)NCc1ccc2c(c1)OCO2 (stereo unspecified) | inconclusive: 10 µM [inhibitor, single point]
O=C1Nc2ccc(I)cc2/C1=C/c1cc(Br)c(O)c(Br)c1 | inconclusive: 28.2 µM [activator, partial curve] and inconclusive: 31.6 µM [activator, single point]

Structure (SMILES) | Potency
CCOC(=O)CNc1ncc([N+](=O)[O-])cc1C#N | inactive
COc1ccccc1/C=C/C=N/NC(=O)c1cc(-c2ccc(C)o2)[nH]n1 | active: 12.6 µM
Clc1ccc(Oc2nc3ccccc3n3cccc23)cc1 | inconclusive: 3.16 µM [inhibitor, partial curve, poor fit]
COc1ccc(C2c3c(oc4ccccc4c3=O)C(=O)N2Cc2ccncc2)cc1 (stereo unspecified) | inactive
CCC(CC)c1nc(C#N)c(NC(C)c2ccccc2)o1 (stereo unspecified) | inconclusive: 35.5 µM [inhibitor, single point]
CCc1ccc(OCC(=O)Nc2ccc3c(c2)OCCO3)cc1 | inactive
COc1cc(C(=O)Nc2nc(-c3ccc(F)cc3)cs2)ccc1OCC(=O)N1CCOCC1 | inconclusive: 5.01 µM [activator, full curve]
Cc1cccc(OCC(=O)Nc2sc3c(c2C#N)CCC3)c1 | inconclusive: 1.58 µM [activator, partial curve]
O=C(COC(=O)c1ccccc1C(=O)c1ccccc1)Nc1cccc([N+](=O)[O-])c1 | inconclusive: 20 µM [activator, partial curve]
O=C1c2ccccc2NC(c2c(Cl)cccc2Cl)N1Cc1ccccc1 (stereo unspecified) | inconclusive: 10 µM [activator, partial curve]
Cc1nc2ccccc2c2oc(C(=O)NCC3COc4ccccc4O3)cc12 (stereo unspecified) | inconclusive: 11.2 µM [activator, single point]
Cn1nc(CC(=O)Nc2ncc(Br)s2)c2ccccc2c1=O | inconclusive: 0.316 µM [activator, single point]
Cc1nnc(SCC(=O)N/N=C/c2cn(-c3ccccc3)nc2-c2ccccc2)n1-c1ccccc1 | inconclusive: 15.8 µM [activator, single point]
CCc1cc2c(CN3CCN(C)CC3)cc(=O)oc2cc1O | inconclusive: 15.8 µM [inhibitor, single point]
O=C(Cn1nc(-c2ccccc2Cl)ccc1=O)Nc1ccccc1-c1ccccc1 | inactive
Cc1cccc(-c2noc(CCCC(=O)NC3CCCC3)n2)c1 | inactive
CCOC(=O)c1oc2ccc(Br)cc2c1NC(=O)CN1CCN(C)CC1 | inactive
CC(C)C(=O)N1CCC2(CC1)Oc1ccc(Cl)cc1C(=O)C21CC(c2ccc(Cl)cc2)=NO1 (stereo unspecified) | inactive
O=C(N/N=C/c1ccc(OCc2ccccc2)cc1)c1ccncc1 | active: 12.6 µM
CC(=O)c1cc(NC(=O)c2cccc(C(F)(F)F)c2)c(=O)oc1C | active: 3.16 µM
CCOc1ccc2nc(NC(=O)c3cnc(C)cn3)sc2c1 | active: 1.78 µM
c1ccc(-c2n[nH]c(-c3ccccn3)n2)nc1 | inconclusive: 20 µM [inhibitor, single point] and inconclusive: 22.4 µM [inhibitor, single point]
O=C(NCc1ccccc1)c1ccc(S(=O)(=O)Nc2cccc(C(F)(F)F)c2)cc1 | inconclusive: 2.82 µM [inhibitor, single point]
CCN(CC)c1ccc(/C=N/N=C(c2ccccc2)c2ccccc2)c(O)c1 | inconclusive: 15.8 µM [inhibitor, single point]

Reformatted as comma-separated lines: 6 of the compounds above.
Structure (SMILES),Potency
CCOC(=O)N1CCC(NS(=O)(=O)c2ccc(NC(C)=O)c(Cl)c2)CC1,"inconclusive: 4.47 µM [activator, partial curve]"
O=C(Nc1ccc(Cl)cc1)Nc1ccc2c(c1)OCO2,inactive
CC(=O)N1CCN(c2ccccc2NC(=O)COc2cc(C)cc(C)c2)CC1,"inconclusive: 1.41 µM [activator, full curve, poor fit]"
Cc1ccc(C)c(S(=O)(=O)N2CCN(C(=O)c3cc(S(=O)(=O)NCc4ccccc4)ccc3C)CC2)c1,"inconclusive: 10 µM [activator, partial curve]"
C=CCn1c(=O)c(C(=O)NCc2ccc(Cl)cc2)c(O)c2ccccc21,"inconclusive: 17.8 µM [inhibitor, single point]"
N#CC(c1ccccc1O)N1N=C(c2ccccc2)CC1c1ccccc1 (stereo unspecified),"inconclusive: 35.5 µM [inhibitor, single point]"

Remaining list, next part

Structure (SMILES) | Potency
O=C1c2ccccc2C(=O)N1CCCCSc1nnc(-c2ccc(OC(F)F)cc2)o1 | inconclusive: 35.5 µM [inhibitor, single point]
O=C(c1ccco1)N(Cc1ccc([N+](=O)[O-])cc1)c1ccc(Cl)cc1 | inconclusive: 22.4 µM [activator, single point]
Cc1nc2scc(C)n2c(=O)c1S(=O)(=O)Nc1ccc(OC(F)(F)F)cc1 | inconclusive: 35.5 µM [activator, single point]
CC(C)S(=O)(=O)c1csc(C(=O)Nc2ccc(F)cc2)c1N | inconclusive: 0.0562 µM [activator, full curve, poor fit]
CCC1(c2ccccc2)NC(=O)N(CC(=O)Nc2nnc(C3CC3)s2)C1=O (stereo unspecified) | inconclusive: 12.6 µM [activator, single point]
O=C(O)CN1C(=O)/C(=C/c2ccc(SCc3ccccc3)o2)SC1=S | inconclusive: 25.1 µM [inhibitor, single point]
O=C(c1cc(-c2ccc3c(c2)OCO3)on1)N1CCOCC1 | active: 10 µM
Cc1ccc(OCc2nc(-c3ccccn3)no2)c(Br)c1 | inconclusive: 28.2 µM [inhibitor, single point]
O=C(NCCNCCO)C1(C(F)(F)F)CC(CCc2ccccc2)CCCO1 (stereo unspecified) | inconclusive: 12.6 µM [inhibitor, single point]
N#C/C(=C/c1cn(-c2ccccc2)nc1-c1cccc(OCc2ccccc2)c1)C(=O)NCCCn1ccnc1 | inconclusive: 22.4 µM [inhibitor, single point]
Cn1c(=O)c2c(nc(N3CCCCCC3)n2CCSc2nc3ccccc3o2)n(C)c1=O | inactive
Cc1onc(-c2ccccc2)c1C(=O)NC(=S)NNC(=O)c1cccnc1 | inconclusive: 17.8 µM [inhibitor, single point]
O=[N+]([O-])c1ccc2nc(SCc3ccccc3Cl)sc2c1 | inconclusive: 12.6 µM [activator, partial curve]
O=C(Nc1ccc2c(c1)CCC2)c1cc(S(=O)(=O)Nc2ccc(F)cc2)c(Cl)cc1Cl | inconclusive: 28.2 µM [inhibitor, single point]
O=C(Cc1ccccc1)c1nc2ccccc2s1 | inconclusive: 35.5 µM [inhibitor, single point]
COc1cc(/C=C/C(=O)Nc2nnc(C(C)(C)C)s2)cc(OC)c1OC | inconclusive: 1.78 µM [activator, full curve]
CCOc1cc(NC(=S)Nc2cccc(C)c2)c(OCC)cc1NC(=O)CC(C)C | active: 6.31 µM
Cc1ccc(NC2=C(Cl)C(=O)OC2NC(=O)c2ccccc2)cc1 (stereo unspecified) | inconclusive: 3.16 µM [activator, single point]
COc1ccc(C(=O)NCC2CCCO2)cc1 (stereo unspecified) | inactive
CN(C)C(=O)N1CCC(C(=O)NC2CCCCCCC2)CC1 | inconclusive: 12.6 µM [inhibitor, partial curve]
CC(C)(C)OC(=O)NCCCC[C@H](NC(=O)c1[nH]cnc1C(=O)Nc1ccccc1)C(=O)OC(C)(C)C | active: 12.6 µM
CC(=O)N1CC(C)Sc2ccc(S(=O)(=O)NC(C)c3ccccc3)cc21 (stereo unspecified) | inconclusive: 22.4 µM [activator, single point]
c1ccc(-c2noc(CSc3nnnn3C3CCCCC3)n2)cc1 | inconclusive: 1.78 µM [activator, partial curve]
